Measured values from PubChem BioAssay AID2685 (National Center for Advancing Translational Sciences (NCATS), 2010).
The list shows a part of the results. The main result of the screen is listed elsewhere. These columns were measured beside it and carry no call. Compounds called inactive in the main read-out are mostly missing here. Potencies come from curve fits of mixed quality, noted in brackets.

Assay: qHTS Assay for Lipid Storage Modulators in Drosophila S3 Cells;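 on cell number change: cells counted by Cell Tracker Red CMTPX staining in the red channel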
Conditions: BODIPY lipid droplet fluorescence, 18-24 h; for cell number change: measured here: cell count max response, cells fed with added oleic acid
Procedure, shortened: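 Drosophila S3 cells got compounds at several concentrations plus oleic acid (400 uM solution). Laser-scanning cytometry with 488 nm excitation read lipid droplets at 500-530 nm and cells at 575-640 nm. Percent activity was relative to 20 uM Triacsin C.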

[1] = measured here: lipid fluorescence (Fed channel) AC50, cells fed with added oleic acid
[2] = measured here: cell number channel AC50, cells fed with added oleic acid

| SMILES | cell number change | AC50 [1] | AC50 [2] |
| --- | --- | --- | --- |
| CCC(C)NC(=O)c1ccccc1-c1ccccc1C(=O)NC(C)CC (stereo not drawn) | 0.577% | 0.092 µM [falling, full curve, poor fit] |  |
| CC(=O)Nc1ccc(NC(=O)CCOc2ccccc2C)cc1 | 11.5% | 9.2 µM [falling, partial curve] |  |
| CCCc1nc2oc3cc(OC)ccc3c(=O)c2c(=O)n1Cc1ccco1 | 1.49% | 1.84 µM [rising, partial curve] |  |
| CCOc1ccc(NC(=O)N2CCc3ccccc3C2)cc1 | -6.44% | 7.31 µM [rising, partial curve] | 0.259 µM [rising, full curve, poor fit] |
| CCC(CC)C(=O)Nc1c2c(nn1-c1ccc(OC)cc1)CS(=O)C2 (stereo not drawn) | 3.45% | 23.1 µM [falling, partial curve] |  |
| CC(=O)/C(N=Nc1c(C)n(C)n(-c2ccccc2)c1=O)=C(\C)O | 49.5% |  | 20.6 µM [rising, single point] |
| CC(=O)Nc1ccc(CN2CCN(c3cccc(C(F)(F)F)c3)CC2)cc1 | -0.445% | 0.731 µM [falling, full curve] | 0.731 µM [falling, full curve] |
| CN(C)CCCNCCCNC(=O)c1ccco1 |  | 29.1 µM [falling, single point] | 4.11 µM [falling, partial curve, poor fit] |
| S=C(NCCc1ccccc1)N1CCc2ccccc2C1 | -20.4% | 0.0651 µM [rising, single point] |  |
| O=C(Cn1cnc2ccccc2c1=O)Nc1ccc(S(=O)(=O)N2CCCC2)cc1 | 10.3% |  |  |
| Cc1ccccc1Cn1cc(/C=N/n2cnnc2)c2ccccc21 | 200% | 18.4 µM [rising, partial curve] | 18.4 µM [rising, partial curve] |
| Cc1cc(=O)oc2cc(OCC(=O)OCC(=O)NCc3ccc4c(c3)OCO4)ccc12 | -11.1% |  | 1.3 µM [rising, full curve, poor fit] |
| COc1ccc(-c2csc3ncnc(N4CCN(c5cccc(C)c5C)CC4)c23)cc1 | 55.4% |  |  |
| C=C(C)CN(CC)C(=O)CCc1nnc(CCCc2ccccc2)o1 | -8.82% | 0.184 µM [falling, full curve, poor fit] |  |
| CCCCc1ccc(S(=O)(=O)N2CCN(C(=O)c3ccco3)CC2)cc1 | -27.5% | 29.1 µM [rising, single point] |  |
| NC(=O)c1ccc(NC(=O)CCN=C2NS(=O)(=O)c3ccccc32)cc1 | -33.8% | 4.61 µM [falling, full curve] | 5.8 µM [falling, full curve, poor fit] |
| CCCC(=O)Nc1ccccc1NC(=O)c1ccc(OCC)c(OCC)c1 | 6.04% |  |  |
| Cc1ccc(SCC(=O)NC(=O)NCc2ccccc2)c(C)c1 | 40.4% | 13 µM [rising, partial curve] | 9.2 µM [rising, partial curve] |

Random excerpt: two entries already listed.

| SMILES | cell number change | AC50 [1] | AC50 [2] |
| --- | --- | --- | --- |
| C=C(C)CN(CC)C(=O)CCc1nnc(CCCc2ccccc2)o1 | -8.82% | 0.184 µM [falling, full curve, poor fit] |  |
| COc1ccc(-c2csc3ncnc(N4CCN(c5cccc(C)c5C)CC4)c23)cc1 | 55.4% |  |  |

The listing continues:

| SMILES | cell number change | AC50 [1] | AC50 [2] |
| --- | --- | --- | --- |
| Cc1cc2nccc(-c3ccc(Cl)cc3Cl)n2n1 | 13.3% | 0.146 µM [rising, full curve] |  |
| CCn1c(CN2CCCCCC2=O)nnc1SCc1cnc(-c2ccccc2)s1 | 2.33% |  | 0.00411 µM [falling, full curve, poor fit] |
| NNC(=O)C1=NOC(CNc2ncc(C(F)(F)F)cc2Cl)C1 (stereo not drawn) | 1.65% | 6.51 µM [falling, single point] | 0.326 µM [falling, partial curve, poor fit] |
| Fc1cc(Cl)ccc1NC(=S)NCCN1CCOCC1 | -28.1% | 4.11 µM [falling, full curve, poor fit] | 3.26 µM [falling, single point] |
| COC(=O)c1ccc2c(c1)NC(=O)C(N1CCCCC1)S2 (stereo not drawn) | 2.58% | 8.2 µM [rising, partial curve] |  |
| CCN1C(=O)[C@H]2[C@@H](c3ccc(-c4ccc(F)cc4)c(OC)c3)N3CCC[C@@]3(C(=O)OC)[C@H]2C1=O | 26.1% |  |  |
| COc1ccc(/C=C/C(=O)NC(=S)N2CCN(c3ccccc3OC)CC2)cc1 | 25.2% | 0.00517 µM [rising, full curve, poor fit] |  |
| CC(C)CCNC(=O)C(c1ccc(O)cc1)N(Cc1cccs1)C(=O)C1COc2ccccc2O1 (stereo not drawn) |  | 20.6 µM [rising, single point] |  |
| CC(C)C(=O)Nc1ccc2nn(-c3ccccc3)nc2c1 | -21.9% |  | 2.91 µM [falling, single point] |
| COc1cccc(-c2nc(CS(=O)(=O)CC(=O)Nc3c(C)cccc3C)c(C)o2)c1 |  | 4.11 µM [rising, partial curve, poor fit] | 2.59 µM [rising, partial curve] |
| O=[N+]([O-])c1cc([N+](=O)[O-])c(Oc2cncc(Cl)c2)cc1NN1CCCCC1 | 2.4% | 16.4 µM [falling, single point] | 6.51 µM [rising, single point] |
| CC(C)[C@@H]1CC[C@@H](C)C[C@H]1OC(=O)C[n+]1cc(-c2ccc(Cl)cc2)n2c1CCCCC2 | -25.6% | 6.51 µM [falling, full curve, poor fit] | 4.11 µM [falling, single point] |
| Cc1ccnc(NC(=O)CCC(=O)N(CC(=O)NCc2ccccc2)Cc2ccc(F)cc2)c1 |  | 6.51 µM [falling, partial curve] |  |
| CN(c1ccccc1C(=O)NCc1ccccc1Cl)S(=O)(=O)c1ccccc1 | -2.19% | 13 µM [falling, partial curve, poor fit] |  |
| COC(=O)c1cc(NCc2ccc3c(c2)OCO3)ccc1N1CCOCC1 | -8% | 1.64 µM [rising, partial curve] |  |
| Fc1ccc(-c2nnc(Cc3nnc(-c4ccc(F)cc4)o3)o2)cc1 | 7.85% | 23.1 µM [rising, single point] |  |
| NS(=O)(=O)c1ccc(CCNC(=O)c2ccccc2[N+](=O)[O-])cc1 | 136% |  | 29.1 µM [rising, single point] |
